The assay addresses MEF2A (human) (UniProt Q02078). The experiment in a line: SPR; Biacore T200, 25 °C; MEF2A immobilised on CM5 chip by amine coupling; class IIa HDACs injected at 40-1.25 nM (2-fold dilutions, in duplicate), 30 uL/min, contact 90 s, dissociation 300 s; HBS-P (10 mM Hepes pH 7.4, 150 mM NaCl, 0.05% P20) for HDAC7 and HDAC9, HBS-P with 1% (v/v) glycerol for HDAC4 and HDAC5; 1:1 kinetic binding model; three independent experiments; both purified. Background: In SPR one partner is held on a chip, and binding of the other changes the refractive index at the surface.

Protein sequences, listed by entry. Tags and fused reporters are not part of them.
UniProt Q9UKV0: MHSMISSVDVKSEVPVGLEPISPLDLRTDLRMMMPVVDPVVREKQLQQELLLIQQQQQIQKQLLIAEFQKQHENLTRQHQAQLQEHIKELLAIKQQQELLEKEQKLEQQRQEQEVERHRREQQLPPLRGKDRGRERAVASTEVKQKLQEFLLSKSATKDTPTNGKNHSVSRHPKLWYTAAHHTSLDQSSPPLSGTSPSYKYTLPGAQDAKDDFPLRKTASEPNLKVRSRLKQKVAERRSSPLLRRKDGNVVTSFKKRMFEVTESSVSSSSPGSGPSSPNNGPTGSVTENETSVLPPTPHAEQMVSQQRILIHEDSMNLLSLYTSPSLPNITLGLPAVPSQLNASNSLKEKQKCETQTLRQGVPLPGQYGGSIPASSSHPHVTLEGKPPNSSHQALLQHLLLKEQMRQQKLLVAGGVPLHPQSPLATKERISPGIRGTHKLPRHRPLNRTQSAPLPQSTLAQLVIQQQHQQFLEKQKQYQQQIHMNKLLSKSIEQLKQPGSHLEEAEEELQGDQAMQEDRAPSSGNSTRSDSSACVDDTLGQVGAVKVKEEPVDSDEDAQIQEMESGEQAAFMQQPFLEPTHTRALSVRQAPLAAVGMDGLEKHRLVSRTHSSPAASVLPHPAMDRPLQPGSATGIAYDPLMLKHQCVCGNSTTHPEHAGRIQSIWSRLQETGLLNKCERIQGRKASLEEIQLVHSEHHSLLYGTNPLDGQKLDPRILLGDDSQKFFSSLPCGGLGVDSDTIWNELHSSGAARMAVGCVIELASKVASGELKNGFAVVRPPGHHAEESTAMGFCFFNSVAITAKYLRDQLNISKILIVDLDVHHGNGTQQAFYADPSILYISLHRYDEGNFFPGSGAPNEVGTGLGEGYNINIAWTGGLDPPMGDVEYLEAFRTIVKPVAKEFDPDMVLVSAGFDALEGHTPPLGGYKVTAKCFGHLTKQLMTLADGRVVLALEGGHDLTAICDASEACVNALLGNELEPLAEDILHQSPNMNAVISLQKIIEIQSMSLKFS

No constants are given. Whether binding was seen depends on the method and setting. Some entries that bind do so weakly or less than the wild type.

As for “HDAC9 (from UniProt Q9UKV0 1-1011) (enzyme)”, the binding result is “binds”.

Source of the values: PMC12199305.
